Binding data for three substances are collected here from publication PMC6333334.

Chains of the proteins cited; added tags and fusions are not shown. Lines headed by an entry give the natural chain unless they say otherwise; changes in a name come on top. Residues count along the entry.
UniProt Q9VFX3: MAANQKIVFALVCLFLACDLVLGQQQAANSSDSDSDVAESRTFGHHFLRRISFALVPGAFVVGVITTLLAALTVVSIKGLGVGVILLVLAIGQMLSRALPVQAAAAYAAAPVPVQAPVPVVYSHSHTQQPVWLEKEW
UniProt Q24298: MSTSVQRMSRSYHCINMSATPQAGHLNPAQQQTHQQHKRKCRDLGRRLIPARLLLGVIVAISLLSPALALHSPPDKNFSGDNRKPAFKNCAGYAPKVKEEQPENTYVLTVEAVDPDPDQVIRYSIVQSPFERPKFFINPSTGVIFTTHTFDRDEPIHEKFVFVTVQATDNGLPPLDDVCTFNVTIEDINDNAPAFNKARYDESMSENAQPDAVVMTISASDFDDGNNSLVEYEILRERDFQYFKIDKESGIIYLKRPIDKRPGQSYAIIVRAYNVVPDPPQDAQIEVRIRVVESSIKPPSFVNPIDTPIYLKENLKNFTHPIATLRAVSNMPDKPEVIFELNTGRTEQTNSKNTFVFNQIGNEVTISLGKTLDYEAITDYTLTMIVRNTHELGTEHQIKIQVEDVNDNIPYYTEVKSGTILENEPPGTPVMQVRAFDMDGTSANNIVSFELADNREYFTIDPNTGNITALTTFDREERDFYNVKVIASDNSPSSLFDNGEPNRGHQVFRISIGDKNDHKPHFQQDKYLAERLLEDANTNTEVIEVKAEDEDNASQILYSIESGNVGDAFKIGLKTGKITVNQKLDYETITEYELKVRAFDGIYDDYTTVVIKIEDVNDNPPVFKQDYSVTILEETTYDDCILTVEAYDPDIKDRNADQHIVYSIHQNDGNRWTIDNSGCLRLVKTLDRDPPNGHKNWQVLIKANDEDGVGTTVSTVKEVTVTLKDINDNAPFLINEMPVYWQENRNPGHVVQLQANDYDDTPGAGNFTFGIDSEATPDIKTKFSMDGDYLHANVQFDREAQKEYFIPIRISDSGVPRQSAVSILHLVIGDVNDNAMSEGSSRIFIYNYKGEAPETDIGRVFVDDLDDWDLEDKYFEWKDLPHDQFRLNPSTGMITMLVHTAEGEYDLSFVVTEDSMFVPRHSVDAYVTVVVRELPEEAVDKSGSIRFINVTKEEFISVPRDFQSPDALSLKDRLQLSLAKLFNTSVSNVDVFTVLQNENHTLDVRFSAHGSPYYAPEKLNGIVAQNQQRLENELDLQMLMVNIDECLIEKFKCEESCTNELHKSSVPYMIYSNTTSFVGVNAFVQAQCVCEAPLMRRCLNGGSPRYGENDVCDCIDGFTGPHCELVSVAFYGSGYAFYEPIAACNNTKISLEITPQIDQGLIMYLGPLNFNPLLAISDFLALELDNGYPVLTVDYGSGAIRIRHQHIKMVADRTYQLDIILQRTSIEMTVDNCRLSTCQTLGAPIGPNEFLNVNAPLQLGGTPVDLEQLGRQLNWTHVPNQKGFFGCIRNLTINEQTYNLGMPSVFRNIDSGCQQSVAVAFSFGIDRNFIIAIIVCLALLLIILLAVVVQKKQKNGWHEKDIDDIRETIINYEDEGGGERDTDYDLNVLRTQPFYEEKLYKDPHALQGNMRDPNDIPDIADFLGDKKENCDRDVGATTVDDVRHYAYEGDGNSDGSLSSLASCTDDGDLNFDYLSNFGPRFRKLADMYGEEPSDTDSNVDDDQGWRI
UniProt Q04164, residues 42-1693: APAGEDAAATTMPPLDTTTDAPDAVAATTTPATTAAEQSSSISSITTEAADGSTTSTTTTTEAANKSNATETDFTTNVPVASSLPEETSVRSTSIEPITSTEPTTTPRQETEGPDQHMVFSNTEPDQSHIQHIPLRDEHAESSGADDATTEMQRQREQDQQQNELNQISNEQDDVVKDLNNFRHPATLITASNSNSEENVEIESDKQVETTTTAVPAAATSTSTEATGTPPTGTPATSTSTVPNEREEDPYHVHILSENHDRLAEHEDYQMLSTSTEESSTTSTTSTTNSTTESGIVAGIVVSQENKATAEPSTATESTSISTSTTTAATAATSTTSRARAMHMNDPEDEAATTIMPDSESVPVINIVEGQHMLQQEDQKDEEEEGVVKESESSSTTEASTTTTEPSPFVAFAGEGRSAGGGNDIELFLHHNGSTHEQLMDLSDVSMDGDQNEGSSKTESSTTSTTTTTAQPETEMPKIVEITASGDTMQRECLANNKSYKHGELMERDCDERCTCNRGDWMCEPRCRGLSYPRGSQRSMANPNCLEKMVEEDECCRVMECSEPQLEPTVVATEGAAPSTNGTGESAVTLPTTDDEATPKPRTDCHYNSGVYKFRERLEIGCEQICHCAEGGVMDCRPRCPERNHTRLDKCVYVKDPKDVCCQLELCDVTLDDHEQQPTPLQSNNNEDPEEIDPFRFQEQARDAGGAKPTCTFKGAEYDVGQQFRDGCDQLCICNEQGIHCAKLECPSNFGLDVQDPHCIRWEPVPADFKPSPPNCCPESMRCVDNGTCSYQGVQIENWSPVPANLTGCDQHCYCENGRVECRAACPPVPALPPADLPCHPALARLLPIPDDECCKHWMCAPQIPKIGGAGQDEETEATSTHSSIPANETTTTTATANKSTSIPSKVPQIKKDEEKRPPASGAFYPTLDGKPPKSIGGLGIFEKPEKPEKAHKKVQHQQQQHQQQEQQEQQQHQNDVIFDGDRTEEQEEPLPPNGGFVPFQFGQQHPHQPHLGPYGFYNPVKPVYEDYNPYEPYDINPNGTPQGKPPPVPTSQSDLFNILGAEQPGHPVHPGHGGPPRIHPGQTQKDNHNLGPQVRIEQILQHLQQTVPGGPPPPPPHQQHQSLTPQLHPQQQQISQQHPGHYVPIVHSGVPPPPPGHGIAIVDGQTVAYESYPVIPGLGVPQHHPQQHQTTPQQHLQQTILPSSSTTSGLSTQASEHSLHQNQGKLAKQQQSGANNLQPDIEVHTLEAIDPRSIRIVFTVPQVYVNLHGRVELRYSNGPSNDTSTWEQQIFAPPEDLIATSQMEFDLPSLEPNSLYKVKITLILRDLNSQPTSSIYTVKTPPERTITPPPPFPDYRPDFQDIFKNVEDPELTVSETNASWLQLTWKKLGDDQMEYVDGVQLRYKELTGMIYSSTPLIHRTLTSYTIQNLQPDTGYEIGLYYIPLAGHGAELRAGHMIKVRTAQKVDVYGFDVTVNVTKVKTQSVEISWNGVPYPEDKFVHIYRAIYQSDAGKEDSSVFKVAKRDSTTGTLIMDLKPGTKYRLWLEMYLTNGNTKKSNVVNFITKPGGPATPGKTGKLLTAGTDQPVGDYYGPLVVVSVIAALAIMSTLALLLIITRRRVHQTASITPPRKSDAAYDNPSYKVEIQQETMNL
UniProt P10040, residues 84-2146: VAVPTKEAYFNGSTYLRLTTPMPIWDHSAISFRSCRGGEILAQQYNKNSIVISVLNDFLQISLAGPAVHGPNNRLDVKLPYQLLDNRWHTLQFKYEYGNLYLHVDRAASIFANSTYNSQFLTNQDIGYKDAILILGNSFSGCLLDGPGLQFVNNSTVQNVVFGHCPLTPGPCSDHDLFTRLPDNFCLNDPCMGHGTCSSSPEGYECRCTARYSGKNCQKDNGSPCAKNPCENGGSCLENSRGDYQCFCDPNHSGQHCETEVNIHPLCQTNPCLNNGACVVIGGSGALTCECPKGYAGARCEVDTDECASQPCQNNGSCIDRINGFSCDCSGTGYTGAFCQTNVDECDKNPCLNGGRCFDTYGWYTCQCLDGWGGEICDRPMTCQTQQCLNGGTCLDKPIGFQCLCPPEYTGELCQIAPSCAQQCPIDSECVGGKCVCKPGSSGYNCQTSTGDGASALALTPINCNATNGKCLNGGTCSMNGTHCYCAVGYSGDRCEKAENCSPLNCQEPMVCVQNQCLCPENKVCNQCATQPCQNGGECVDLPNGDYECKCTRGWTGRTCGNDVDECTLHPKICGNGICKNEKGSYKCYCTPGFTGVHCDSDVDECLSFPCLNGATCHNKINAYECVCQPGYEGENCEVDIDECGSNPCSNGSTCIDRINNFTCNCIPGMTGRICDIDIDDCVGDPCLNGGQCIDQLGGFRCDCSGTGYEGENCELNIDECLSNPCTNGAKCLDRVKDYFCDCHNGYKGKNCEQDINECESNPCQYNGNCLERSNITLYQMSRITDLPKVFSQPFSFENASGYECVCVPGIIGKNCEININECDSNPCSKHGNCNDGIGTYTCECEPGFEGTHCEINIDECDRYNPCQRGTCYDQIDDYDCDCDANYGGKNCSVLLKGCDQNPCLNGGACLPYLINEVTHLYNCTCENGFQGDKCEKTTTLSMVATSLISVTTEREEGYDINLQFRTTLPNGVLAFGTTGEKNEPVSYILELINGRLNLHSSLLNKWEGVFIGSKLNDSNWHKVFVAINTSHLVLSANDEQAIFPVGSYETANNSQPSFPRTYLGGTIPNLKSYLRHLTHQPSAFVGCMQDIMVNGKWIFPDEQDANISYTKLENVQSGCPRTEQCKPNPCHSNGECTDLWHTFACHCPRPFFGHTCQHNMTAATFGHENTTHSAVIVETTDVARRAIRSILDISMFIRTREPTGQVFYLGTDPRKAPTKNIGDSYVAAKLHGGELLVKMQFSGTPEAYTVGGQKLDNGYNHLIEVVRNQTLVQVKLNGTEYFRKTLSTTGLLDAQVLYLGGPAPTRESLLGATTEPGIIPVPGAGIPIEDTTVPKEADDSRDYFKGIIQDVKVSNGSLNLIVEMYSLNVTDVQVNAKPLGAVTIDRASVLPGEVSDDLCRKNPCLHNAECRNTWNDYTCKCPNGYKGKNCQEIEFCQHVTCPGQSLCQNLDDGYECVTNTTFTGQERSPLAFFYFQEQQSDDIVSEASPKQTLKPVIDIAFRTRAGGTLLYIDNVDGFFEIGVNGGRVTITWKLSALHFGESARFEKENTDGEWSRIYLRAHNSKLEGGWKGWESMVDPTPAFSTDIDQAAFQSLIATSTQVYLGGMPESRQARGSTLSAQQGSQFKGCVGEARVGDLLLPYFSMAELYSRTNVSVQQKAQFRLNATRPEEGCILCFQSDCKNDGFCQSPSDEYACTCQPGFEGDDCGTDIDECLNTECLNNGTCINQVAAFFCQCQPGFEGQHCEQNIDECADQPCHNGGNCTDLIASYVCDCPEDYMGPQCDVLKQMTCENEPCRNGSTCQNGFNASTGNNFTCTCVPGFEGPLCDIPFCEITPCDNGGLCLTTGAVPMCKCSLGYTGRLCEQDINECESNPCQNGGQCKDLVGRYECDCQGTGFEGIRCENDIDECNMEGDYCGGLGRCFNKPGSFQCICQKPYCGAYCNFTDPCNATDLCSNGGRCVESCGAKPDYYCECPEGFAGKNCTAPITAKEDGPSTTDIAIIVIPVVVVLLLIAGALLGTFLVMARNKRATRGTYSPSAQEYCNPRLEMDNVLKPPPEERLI

These are yes or no findings as the source states them, for the method shown. Binding seen in cells or lysates may run through a third protein. For some assays here: Binding can be weak; no strength is given.

Experiment [1] deals with Apnoia, endogenous in larval tracheae (Drosophila melanogaster (endogenous in larval tracheae)) (UniProt Q9VFX3). The experiment in a line: proximity ligation; wild type and apn^1 mutant larval tracheae, Apn and Crb antibodies.
For experiment [2], the target named is Apn-sfGFP, Apnoia C-terminally tagged with superfolder GFP from the fosmid fosapn_(sfGFP) (Drosophila melanogaster) (UniProt Q9VFX3). As to the kind of experiment: proximity ligation; fixed larval tracheae (fosapn_(sfGFP), DEcad-GFP or SAS-Venus larvae); primary antibodies against GFP and Crb (DEcad and GFP antibodies in Fig 2E); Duolink PLA kit.
For experiment [3], the target named is Drosophila E-cadherin, endogenous in larval tracheae (Drosophila melanogaster (endogenous in larval tracheae)) (UniProt Q24298). Described as above.
Experiment [4] addresses Drosophila E-cadherin tagged to GFP (DEcad-GFP) (Drosophila melanogaster) (UniProt Q24298). Described as above.
The target of experiment [5] is Stranded at second tagged with Venus (SAS-Venus) (Drosophila melanogaster) (UniProt Q04164). Described as above.

Turning to “Crumbs, endogenous in larval tracheae (from UniProt P10040 84-2146)”, the binding entry in experiment [1] and in experiment [2] was “binds” in each case.

Turning to “Apn-sfGFP, Apnoia C-terminally tagged with superfolder GFP from the fosmid fosapn_(sfGFP) (from UniProt Q9VFX3)”, the binding entry in experiment [3] is given as “no binding”.

As for “Apnoia, endogenous in larval tracheae (from UniProt Q9VFX3)”, the binding result in experiment [4] and in experiment [5] was “no binding” in each case.
